Patent US20230119082A1, “(AZIRIDINYL HYDROXY)-FUNCTIONAL ORGANIC COMPOUNDS” (COVESTRO (NETHERLANDS) B.V., priority 2020, published 2023)

Test: Crosslinking efficiency: chemical resistance of cured films
Conditions: film with polyurethane A-AQD, aziridine:carboxylic acid molar ratio 0.9; ethanol:demineralized water (1:1), 240 minutes

SMILES	crosslinking efficiency
CC1CN1CC(O)CN(Cc1cccc(CN(CC(O)CN2CC2C)CC(O)CN2CC2C)c1)CC(O)CN1CC1C (stereo not drawn) [Example 2C]	good (the chemical resistance of a film measured as described in the specification is 3)
CC1CN1CC(O)COc1ccc(C(C)(c2ccc(OCC(O)CN3CC3C)cc2)c2ccc(OCC(O)CN3CC3C)cc2)cc1 (stereo not drawn) [Example 2]	good (the chemical resistance of a film measured as described in the specification is 3)
CC1CN1CC(O)COc1ccc(N(CC(O)CN2CC2C)CC(O)CN2CC2C)cc1 (stereo not drawn) [Example 3C]	good (the chemical resistance of a film measured as described in the specification is 3)
CC1CN1CC(O)COC(=O)NCCCCCCn1c(=O)n(CCCCCCNC(=O)OCC(O)CN2CC2C)c(=O)n(CCCCCCNC(=O)OCC(O)CN2CC2C)c1=O (stereo not drawn) [Example 3]	good (the chemical resistance of a film measured as described in the specification is 3)
CC1CN1CC(O)COc1ccc(C(C)(C)c2ccc(OCC(O)CN3CC3C)cc2)cc1 (stereo not drawn) [Example 4C]	good (the chemical resistance of a film measured as described in the specification is 3)
CCCCCCCC(CCCCCCCc1cccc(OCC(O)CN2CC2C)c1)c1ccc(OCC(O)CN2CC2C)cc1 (stereo not drawn) [Example 4]	good (the chemical resistance of a film measured as described in the specification is 3)

Some entries repeat one wording, which the source may state once for all of them.
